Results are given in words; binding and its absence hold for the method and conditions named. In cells and extracts the contact can be indirect. Some results given as binding are weak or reduced against the parent protein; the word gives no strength. Where a sequence is shown, tags or fusion partners need not be part of it.
Biological target: T1, GST-RP2 (retinitis pigmentosa 2) (UniProt O75695)
T1 sequence: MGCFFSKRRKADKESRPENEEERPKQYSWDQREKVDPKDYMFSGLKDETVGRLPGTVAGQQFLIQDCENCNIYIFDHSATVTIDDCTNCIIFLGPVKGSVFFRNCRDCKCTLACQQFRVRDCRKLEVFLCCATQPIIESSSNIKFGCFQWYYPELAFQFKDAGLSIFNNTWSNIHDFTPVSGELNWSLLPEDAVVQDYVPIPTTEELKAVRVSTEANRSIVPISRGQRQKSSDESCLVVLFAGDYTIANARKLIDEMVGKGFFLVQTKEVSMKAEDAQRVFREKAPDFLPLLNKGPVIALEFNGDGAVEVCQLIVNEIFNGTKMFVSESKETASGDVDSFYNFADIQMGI
Assay: pull-down

The chains behind the UniProt entries cited, without tags or fusion partners. Where a name states a change or a piece, a line headed by the entry shows the natural chain unless it says otherwise.
UniProt P61006: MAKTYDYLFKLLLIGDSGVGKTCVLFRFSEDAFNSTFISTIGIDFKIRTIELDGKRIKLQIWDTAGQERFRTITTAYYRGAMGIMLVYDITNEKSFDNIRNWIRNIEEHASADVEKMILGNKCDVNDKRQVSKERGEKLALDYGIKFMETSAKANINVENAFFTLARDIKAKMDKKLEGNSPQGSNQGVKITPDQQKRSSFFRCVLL

For “Myc-Rab8-T22N (from UniProt P61006 1-207) (enzyme)”, the binding was “binds”.

Reference: article doi:10.1101/059451
